Measurements reported in PubChem BioAssay AID1053208 (Peter MacCallum Cancer Centre, 2014)
The whole screen tested about 17,000 reagents; shown is a part drawn at random. Of all reagents, 788 (4.7%) are marked active. 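Calls rest on z-score classes alone; an extra cut-off of viability at most 70% of control was not applied to them.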 A reagent listed more than once was tested more than once; the source does not tell the runs apart. Further read-outs or replicates are left out here.

Screen: 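Synthetic lethal interactions between gene loss and doxorubicin in osteosarcoma cells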 (primary screen)
Cell system: mouse osteosarcoma cells, early-passage culture from an engineered mouse model of fibroblastic bone tumour
Reagents: siRNA pool against mouse genes, 40 nM
Timing: about 120 h (48 h before drug, then 72 h with drug)
Treatment: doxorubicin 100 nM for 72 h, roughly 30-40% inhibitory dose
Measurement: 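Luminescent ATP signal taken as viability with or without 100 nM doxorubicin for 72 h; mean of two wells set against non-targeting siRNA and turned into robust z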
Direction: viability z-score with doxorubicin: higher = more viable cells under doxorubicin; viability z-score without drug: higher = more viable cells with knock-down alone
Call rule: 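a pool counts as active when its viability z-score with doxorubicin is -2 or below and its z-score without drug lies between -2 and 2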

The opening 3 entries, to show the layout:
{"gene": "Moap1 (modulator of apoptosis 1)", "combined z-score class": "no change with or without drug", "viability z-score with doxorubicin": 1.91, "viability z-score without drug": 0.17, "Outcome": "inactive"}
{"gene": "Slc25a31", "combined z-score class": "no change with or without drug", "viability z-score with doxorubicin": -0.67, "viability z-score without drug": -1.85, "Outcome": "inactive"}
{"gene": "Klk1b4 (kallikrein 1-related pepidase b4)", "combined z-score class": "no change with or without drug", "viability z-score with doxorubicin": -1.57, "viability z-score without drug": -0.51, "Outcome": "inactive"}

Results, repeating the preview:
{"gene": "Moap1 (modulator of apoptosis 1)", "combined z-score class": "no change with or without drug", "viability z-score with doxorubicin": 1.91, "viability z-score without drug": 0.17, "Outcome": "inactive"}
{"gene": "Slc25a31", "combined z-score class": "no change with or without drug", "viability z-score with doxorubicin": -0.67, "viability z-score without drug": -1.85, "Outcome": "inactive"}
{"gene": "Klk1b4 (kallikrein 1-related pepidase b4)", "combined z-score class": "no change with or without drug", "viability z-score with doxorubicin": -1.57, "viability z-score without drug": -0.51, "Outcome": "inactive"}
{"gene": "Syn3 (synapsin III)", "combined z-score class": "no change with or without drug", "viability z-score with doxorubicin": -0.45, "viability z-score without drug": -0.17, "Outcome": "inactive"}
{"gene": "Neurl4 (neuralized E3 ubiquitin protein ligase 4)", "combined z-score class": "no change with or without drug", "viability z-score with doxorubicin": -0.45, "viability z-score without drug": -1.52, "Outcome": "inactive"}
{"gene": "Psmd10 (proteasome (prosome, macropain) 26S subunit, non-ATPase, 10)", "combined z-score class": "no change with or without drug", "viability z-score with doxorubicin": 0.9, "viability z-score without drug": 0.17, "Outcome": "inactive"}
{"gene": "Agmo (alkylglycerol monooxygenase)", "combined z-score class": "no change with or without drug", "viability z-score with doxorubicin": 0.45, "viability z-score without drug": -0.51, "Outcome": "inactive"}
{"gene": "Fpgs (folylpolyglutamyl synthetase)", "combined z-score class": "no change with or without drug", "viability z-score with doxorubicin": -0.67, "viability z-score without drug": -0.51, "Outcome": "inactive"}
{"gene": "Gabrg1 (gamma-aminobutyric acid type A receptor subunit gamma 1)", "combined z-score class": "no change with or without drug", "viability z-score with doxorubicin": 0.34, "viability z-score without drug": -0.84, "Outcome": "inactive"}
{"gene": "Strada (STE20-related kinase adaptor alpha)", "combined z-score class": "no change with or without drug", "viability z-score with doxorubicin": 0.22, "viability z-score without drug": -1.18, "Outcome": "inactive"}
{"gene": "Strada (STE20-related kinase adaptor alpha)", "combined z-score class": "no change with or without drug", "viability z-score with doxorubicin": -0.45, "viability z-score without drug": -0.17, "Outcome": "inactive"}
{"gene": "Or14a259 (olfactory receptor family 14 subfamily A member 259)", "combined z-score class": "no change with or without drug", "viability z-score with doxorubicin": -0.22, "viability z-score without drug": -1.85, "Outcome": "inactive"}
{"gene": "Tas2r121 (taste receptor, type 2, member 121)", "combined z-score class": "no change with or without drug", "viability z-score with doxorubicin": -0.45, "viability z-score without drug": 0.51, "Outcome": "inactive"}
{"gene": "Or5g9 (olfactory receptor family 5 subfamily G member 9)", "combined z-score class": "no change with or without drug", "viability z-score with doxorubicin": -1.24, "viability z-score without drug": -1.85, "Outcome": "inactive"}
{"gene": "Tex9 (testis expressed gene 9)", "combined z-score class": "no change with or without drug", "viability z-score with doxorubicin": 1.24, "viability z-score without drug": 1.85, "Outcome": "inactive"}
{"gene": "Micu1 (mitochondrial calcium uptake 1)", "combined z-score class": "no change with or without drug", "viability z-score with doxorubicin": -1.24, "viability z-score without drug": -0.17, "Outcome": "inactive"}
{"gene": "Il17f (interleukin 17F)", "combined z-score class": "no change with or without drug", "viability z-score with doxorubicin": 0.22, "viability z-score without drug": 1.18, "Outcome": "inactive"}
{"gene": "Iars1 (isoleucyl-tRNA synthetase 1)", "combined z-score class": "no change with or without drug", "viability z-score with doxorubicin": -0.45, "viability z-score without drug": -0.51, "Outcome": "inactive"}
{"gene": "Or12e8 (olfactory receptor family 12 subfamily E member 8)", "combined z-score class": "high cell count without drug only", "viability z-score with doxorubicin": 0, "viability z-score without drug": 3.54, "Outcome": "inactive"}
{"gene": "C2cd4c (C2 calcium-dependent domain containing 4C)", "combined z-score class": "no change with or without drug", "viability z-score with doxorubicin": 0.34, "viability z-score without drug": 0.17, "Outcome": "inactive"}
{"gene": "Itgb6 (integrin beta 6)", "combined z-score class": "no change with or without drug", "viability z-score with doxorubicin": -1.57, "viability z-score without drug": -1.18, "Outcome": "inactive"}
{"gene": "E330037G11Rik (RIKEN cDNA E330037G11 gene)", "combined z-score class": "no change with or without drug", "viability z-score with doxorubicin": -0.45, "viability z-score without drug": 0.17, "Outcome": "inactive"}
{"gene": "Defa21 (defensin, alpha, 21)", "combined z-score class": "no change with or without drug", "viability z-score with doxorubicin": 1.12, "viability z-score without drug": 1.18, "Outcome": "inactive"}
{"gene": "Slc35a2", "combined z-score class": "no change with or without drug", "viability z-score with doxorubicin": -0.22, "viability z-score without drug": -1.18, "Outcome": "inactive"}
{"gene": "Alg5 (ALG5 dolichyl-phosphate beta-glucosyltransferase)", "combined z-score class": "no change with or without drug", "viability z-score with doxorubicin": 0, "viability z-score without drug": 1.18, "Outcome": "inactive"}
{"gene": "Gas1 (growth arrest specific 1)", "combined z-score class": "no change with or without drug", "viability z-score with doxorubicin": 1.8, "viability z-score without drug": 0.17, "Outcome": "inactive"}
{"gene": "Mrgprb2 (MAS-related GPR, member B2)", "combined z-score class": "no change with or without drug", "viability z-score with doxorubicin": -0.11, "viability z-score without drug": 0.17, "Outcome": "inactive"}
{"gene": "Grin1 (glutamate receptor, ionotropic, NMDA1 (zeta 1))", "combined z-score class": "no change with or without drug", "viability z-score with doxorubicin": -0.9, "viability z-score without drug": -0.34, "Outcome": "inactive"}
